The record followed here is article PMC9684461, “RNA-controlled nucleocytoplasmic shuttling of mRNA decay factors regulates mRNA synthesis and a novel mRNA decay pathway” (Nature Communications, 2021).

The chains behind the UniProt entries cited, without tags or fusion partners.
UniProt P22147: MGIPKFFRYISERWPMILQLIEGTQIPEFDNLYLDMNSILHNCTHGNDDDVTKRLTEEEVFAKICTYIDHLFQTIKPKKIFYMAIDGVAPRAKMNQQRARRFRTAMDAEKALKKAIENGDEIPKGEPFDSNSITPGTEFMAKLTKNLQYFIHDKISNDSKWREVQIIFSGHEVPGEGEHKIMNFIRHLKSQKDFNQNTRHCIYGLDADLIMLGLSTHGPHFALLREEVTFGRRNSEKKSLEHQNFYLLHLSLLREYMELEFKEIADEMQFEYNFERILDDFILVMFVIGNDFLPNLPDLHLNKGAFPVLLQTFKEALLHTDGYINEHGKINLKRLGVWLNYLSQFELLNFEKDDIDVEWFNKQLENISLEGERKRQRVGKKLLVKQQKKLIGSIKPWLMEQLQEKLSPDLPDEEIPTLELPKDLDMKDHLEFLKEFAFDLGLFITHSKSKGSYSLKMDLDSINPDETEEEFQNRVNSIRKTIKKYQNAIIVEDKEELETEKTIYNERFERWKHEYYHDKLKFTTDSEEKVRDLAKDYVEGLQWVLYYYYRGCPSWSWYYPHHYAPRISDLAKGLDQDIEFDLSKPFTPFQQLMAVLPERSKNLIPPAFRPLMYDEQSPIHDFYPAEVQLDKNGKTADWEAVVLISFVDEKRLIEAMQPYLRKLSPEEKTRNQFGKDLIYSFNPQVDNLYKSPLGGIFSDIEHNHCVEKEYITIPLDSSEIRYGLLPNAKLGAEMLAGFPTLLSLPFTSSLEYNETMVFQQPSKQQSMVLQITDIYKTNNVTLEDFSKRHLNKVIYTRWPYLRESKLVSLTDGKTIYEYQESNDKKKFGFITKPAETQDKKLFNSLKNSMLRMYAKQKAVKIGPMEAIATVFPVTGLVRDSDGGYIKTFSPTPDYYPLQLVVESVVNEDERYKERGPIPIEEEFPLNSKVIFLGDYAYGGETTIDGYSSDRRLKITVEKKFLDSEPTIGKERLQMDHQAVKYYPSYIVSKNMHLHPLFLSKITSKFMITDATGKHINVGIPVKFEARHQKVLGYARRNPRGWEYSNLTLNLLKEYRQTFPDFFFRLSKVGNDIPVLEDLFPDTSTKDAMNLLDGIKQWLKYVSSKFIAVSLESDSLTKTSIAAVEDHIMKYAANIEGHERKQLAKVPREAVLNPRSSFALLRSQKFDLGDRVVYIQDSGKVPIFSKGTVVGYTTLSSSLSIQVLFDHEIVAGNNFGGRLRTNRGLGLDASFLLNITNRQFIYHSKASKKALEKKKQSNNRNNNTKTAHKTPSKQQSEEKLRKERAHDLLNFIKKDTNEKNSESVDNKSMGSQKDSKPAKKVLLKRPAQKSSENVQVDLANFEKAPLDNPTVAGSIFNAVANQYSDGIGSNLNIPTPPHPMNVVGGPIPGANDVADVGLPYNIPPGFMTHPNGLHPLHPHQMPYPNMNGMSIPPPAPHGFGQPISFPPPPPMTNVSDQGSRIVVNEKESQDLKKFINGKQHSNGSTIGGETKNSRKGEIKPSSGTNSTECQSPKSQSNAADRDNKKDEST

These are yes or no findings as the source states them, for the method shown. Binding seen in cells or lysates may run through a third protein. Some binding calls cover weakened binding; strength is not graded here. Tags and fused reporters may be left off the sequences shown.

First the molecules themselves.
T1: TAP-tagged Kap120 (S. cerevisiae, UniProt Q02932 1-1032)
T1 construct: karyopherin Kap120 of S. cerevisiae, TAP-tagged, expressed in yeast; also called Kap120-TAP; source: yeast, in extract, captured on IgG-sepharose
T1 sequence (looked up): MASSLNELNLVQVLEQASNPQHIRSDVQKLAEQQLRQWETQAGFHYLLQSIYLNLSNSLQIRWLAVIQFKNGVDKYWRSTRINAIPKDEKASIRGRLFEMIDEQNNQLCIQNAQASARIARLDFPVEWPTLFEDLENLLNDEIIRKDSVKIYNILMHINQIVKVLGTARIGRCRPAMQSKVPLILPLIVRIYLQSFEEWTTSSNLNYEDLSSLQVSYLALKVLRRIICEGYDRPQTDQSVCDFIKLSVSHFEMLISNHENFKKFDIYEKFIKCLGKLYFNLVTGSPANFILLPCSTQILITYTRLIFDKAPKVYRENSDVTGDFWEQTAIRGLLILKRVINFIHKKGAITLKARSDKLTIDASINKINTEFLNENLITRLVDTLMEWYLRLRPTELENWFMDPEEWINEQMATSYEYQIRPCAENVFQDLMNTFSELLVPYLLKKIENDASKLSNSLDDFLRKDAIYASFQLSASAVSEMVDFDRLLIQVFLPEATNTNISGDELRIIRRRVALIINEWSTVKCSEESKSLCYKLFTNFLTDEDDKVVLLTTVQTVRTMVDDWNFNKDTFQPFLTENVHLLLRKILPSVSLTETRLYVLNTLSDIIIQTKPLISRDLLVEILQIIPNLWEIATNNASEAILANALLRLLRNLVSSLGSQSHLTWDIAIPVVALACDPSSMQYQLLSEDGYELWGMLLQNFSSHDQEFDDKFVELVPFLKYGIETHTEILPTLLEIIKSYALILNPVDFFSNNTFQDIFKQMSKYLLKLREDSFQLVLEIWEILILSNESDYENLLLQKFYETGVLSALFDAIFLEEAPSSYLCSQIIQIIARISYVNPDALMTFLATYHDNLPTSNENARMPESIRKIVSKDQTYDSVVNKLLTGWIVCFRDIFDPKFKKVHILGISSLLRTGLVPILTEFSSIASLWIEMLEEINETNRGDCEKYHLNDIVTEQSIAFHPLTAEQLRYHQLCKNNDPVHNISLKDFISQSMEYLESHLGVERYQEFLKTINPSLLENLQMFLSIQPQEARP

B1: Ccr4 (protein, UniProt P31384 1-837)
chain: MNDPSLLGYPNVGPQQQQQQQQQQHAGLLGKGTPNALQQQLHMNQLTGIPPPGLMNNSDVHTSSNNNSRQLLDQLANGNANMLNMNMDNNNNNNNNNNNNNNNGGGSGVMMNASTAAVNSIGMVPTVGTPVNINVNASNPLLHPHLDDPSLLNNPIWKLQLHLAAVSAQSLGQPNIYARQNAMKKYLATQQAQQAQQQAQQQAQQQVPGPFGPGPQAAPPALQPTDFQQSHIAEASKSLVDCTKQALMEMADTLTDSKTAKKQQPTGDSTPSGTATNSAVSTPLTPKIELFANGKDEANQALLQHKKLSQYSIDEDDDIENRMVMPKDSKYDDQLWHALDLSNLQIFNISANIFKYDFLTRLYLNGNSLTELPAEIKNLSNLRVLDLSHNRLTSLPAELGSCFQLKYFYFFDNMVTTLPWEFGNLCNLQFLGVEGNPLEKQFLKILTEKSVTGLIFYLRDNRPEIPLPHERRFIEINTDGEPQREYDSLQQSTEHLATDLAKRTFTVLSYNTLCQHYATPKMYRYTPSWALSWDYRRNKLKEQILSYDSDLLCLQEVESKTFEEYWVPLLDKHGYTGIFHAKARAKTMHSKDSKKVDGCCIFFKRDQFKLITKDAMDFSGAWMKHKKFQRTEDYLNRAMNKDNVALFLKLQHIPSGDTIWAVTTHLHWDPKFNDVKTFQVGVLLDHLETLLKEETSHNFRQDIKKFPVLICGDFNSYINSAVYELINTGRVQIHQEGNGRDFGYMSEKNFSHNLALKSSYNCIGELPFTNFTPSFTDVIDYIWFSTHALRVRGLLGEVDPEYVSKFIGFPNDKFPSDHIPLLARFEFMKTNTGSKKV
B2: Pat1 (natural protein, S. cerevisiae (endogenous in yeast), UniProt P25644 1-796, looked up)
chain: MSFFGLENSGNARDGPLDFEESYKGYGEHELEENDYLNDETFGDNVQVGTDFDFGNPHSSGSSGNAIGGNGVGATARSYVAATAEGISGPRTDGTAAAGPLDLKPMESLWSTAPPPAMAPSPQSTMAPAPAPQQMAPLQPILSMQDLERQQRQMQQQFMNFHAMGHPQGLPQGPPQQQFPMQPASGQPGPSQFAPPPPPPGVNVNMNQMPMGPVQVPVQASPSPIGMSNTPSPGPVVGATKMPLQSGRRSKRDLSPEEQRRLQIRHAKVEKILKYSGLMTPRDKDFITRYQLSQIVTEDPYNEDFYFQVYKIIQRGGITSESNKGLIARAYLEHSGHRLGGRYKRTDIALQRMQSQVEKAVTVAKERPSKLKDQQAAAGNSSQDNKQANTVLGKISSTLNSKNPRRQLQIPRQQPSDPDALKDVTDSLTNVDLASSGSSSTGSSAAAVASKQRRRSSYAFNNGNGATNLNKSGGKKFILELIETVYEEILDLEANLRNGQQTDSTAMWEALHIDDSSYDVNPFISMLSFDKGIKIMPRIFNFLDKQQKLKILQKIFNELSHLQIIILSSYKTTPKPTLTQLKKVDLFQMIILKIIVSFLSNNSNFIEIMGLLLQLIRNNNVSFLTTSKIGLNLITILISRAALIKQDSSRSNILSSPEISTWNEIYDKLFTSLESKIQLIFPPREYNDHIMRLQNDKFMDEAYIWQFLASLALSGKLNHQRIIIDEVRDEIFATINEAETLQKKEKELSVLPQRSQELDTELKSIIYNKEKLYQDLNLFLNVMGLVYRDGEISELK
notes: mRNA decay factor Pat1 of S. cerevisiae, detected with anti-Pat1 antibodies; source: endogenous, yeast extract

This experiment deals with T1, TAP-tagged Kap120. In words: co-IP; TAP-tagged Kap120 affinity purified with IgG-sepharose from extract of optimally proliferating yeast (WT or Xrn1^ΔNLS1/2 cells); co-IPed proteins by Western blotting; signals normalized to Kap120.
With “Xrn1 (wild type) in cells expressing Kap120-TAP (from UniProt P22147 1-1528) (enzyme)”, the binding entry is on record as “binds”.
Turning to B1, the binding result is given as “no binding”.
On to B2, for which the binding entry is “binds”.
